In the supplement of paper PMC8166895:
Where a name gives a salt, the structure may show the parent alone. The list shows a part of the results. Most values lie at the level of the controls, where differences are scatter.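 Differential scanning fluorimetry gave melting temperatures in a one-replicate pilot screen of a library of approved drugs plus clinical or known-target compounds. Hits increasing melting point at least 2 °C were the strongest stabilizers, while negative shifts signify destabilization.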

Each molecule was assayed on SARS-CoV-2 main protease (Mpro, nsp5) (assay: thermal shift ΔTm of Mpro relative to plate average Tm; higher = stronger thermal stabilization of Mpro (binding)). Settings: 10 µM; protein concentration 1 µM.

| Structure (SMILES) | thermal shift ΔTm of Mpro [°C] |
| --- | --- |
| CC(C)n1nc(-c2cc3cc(O)ccc3[nH]2)c2c(N)ncnc21 | 0.785 |
| CCOC(=O)c1cnn(-c2ccccc2)c1NC(=O)c1cc2nc(-c3ccco3)cc(C(F)(F)Cl)n2n1 [Mycro-3] | 0.271 |
| NC(=O)N1c2ccccc2C=Cc2ccccc21 [Carbamazepine] | -0.265 |
| Cc1ccc(S(=O)(=O)Nc2cc(C(F)(F)F)ccc2C(=O)Nc2nc(-c3ccccc3)cs2)cc1 | 0.106 |
| CC(=O)Nc1cccc2c1c(Sc1ccc(Cl)cc1)c(C)n2CC(=O)O | 0.0597 |
| CC(COc1ccccc1)N(CCCl)Cc1ccccc1 (stereo not drawn) [Phenoxybenzamine HCl] | -0.00786 |
| Nc1ncn([C@@H]2O[C@H](CO)[C@@H](O)[C@H]2O)c(=O)n1 [Azacitidine] | 0.0637 |
| Cc1c(N)nc(C(CC(N)=O)NCC(N)C(N)=O)nc1C(=O)NC(C(=O)NC(C)C(O)C(C)C(=O)NC(C(=O)NCCc1nc(-c2nc(C(=O)NCCC[S+](C)C)cs2)cs1)C(C)O)C(O[C@@H]1O[C@@H](CO)[C@@H](O)[C@H](O)[C@@H]1O[C@H]1O[C@H](CO)[C@@H](O)[C@H](OC(N)=O)[C@@H]1O)c1cnc[nH]1 (stereo partly drawn) [Bleomycin Sulfate] | 0.287 |
| CCCNC(C)C(=O)Nc1ccccc1C (stereo not drawn) [Prilocaine] | 0.0219 |
| CCCNC(C)C(=O)Nc1ccccc1C (stereo not drawn) [Propitocaine hydrochloride] | 0.125 |
| O=C(O)c1ncn[nH]1 [1H-1,2,4-Triazole-3-carboxylic acid] | 0.179 |
| COc1cc(/C=C/C(=O)N2CCN(CC(=O)N3CCCC3)CC2)cc(OC)c1OC [Cinepazide maleate] | -0.0659 |
| CCCCCCCCCCCCCCCCCCOP(=O)([O-])OC1CC[N+](C)(C)CC1 [Perifosine] | 0.0636 |
| O=C(Nc1ccc(OC(F)(F)F)cc1)c1sccc1NCc1ccnc2ccccc12 | 0.431 |
| O=C(c1cccc(Br)c1)N1CCC(N2CCCC2)CC1 [UNC 926 hydrochloride] | -0.0359 |
| Cc1c(-c2ccnn2C)cc(C(=O)NCc2ccc(S(C)(=O)=O)cn2)c(=O)n1-c1cccc(C(F)(F)F)c1 [Alvelestat (AZD9668)] | -0.0124 |
| CCCCC[C@H](O)/C=C/[C@@H]1[C@@H](C/C=C\CCCC(=O)O)[C@@H](O)C[C@H]1O [Dinoprost Tromethamine] | -0.00295 |
| CCC(N)(C(=O)O)c1ccc(C(=O)O)cc1 (stereo not drawn) | -0.0783 |
| CCOC(=O)c1ccc(OC(=O)CCCCCNC(=N)N)cc1 [Gabexate Mesylate] | 0.139 |

| Structure (SMILES) | thermal shift ΔTm of Mpro [°C] |
| --- | --- |
| Cc1cc(C#N)c(N)s1 [2-Amino-5-methyl-3-thiophenecarbonitrile] | 0.272 |
| CCCN[C@H]1CCc2nc(N)sc2C1 [Pramipexole dihydrochloride monohydrate] | 0.0369 |
| CCCN[C@H]1CCc2nc(N)sc2C1 [Pramipexole] | -0.0901 |
| CC(C)(C)Cn1c(N)nc2ccc(-c3[nH]c(C(C)(C)C)nc3-c3ccc(F)cc3)nc21 | 0.0143 |
| O=C(NC1CCN(CCCCC2(C(=O)NCC(F)(F)F)c3ccccc3-c3ccccc32)CC1)c1ccccc1-c1ccc(C(F)(F)F)cc1 [Lomitapide] | -0.206 |
| O=C(NC1CCN(CCCCC2(C(=O)NCC(F)(F)F)c3ccccc3-c3ccccc32)CC1)c1ccccc1-c1ccc(C(F)(F)F)cc1 [Lomitapide Mesylate] | -0.0583 |
| COc1ccc(C(=O)CC2(O)C(=O)Nc3c(Cl)ccc(Cl)c32)cc1 (stereo not drawn) | -0.179 |
| Cc1cc(=O)oc2cc(O)ccc12 [4-Methylumbelliferone (4-MU)] | -0.0796 |
| C/C=C1/[C@H](O[C@@H]2O[C@H](CO)[C@@H](O)[C@H](O)[C@H]2O)OC=C(C(=O)OC)[C@H]1CC(=O)OCCc1ccc(O)c(O)c1 [Oleuropein] | 1.97 |
| Clc1cccc(-c2nnnn2Cc2cccnc2)c1Cl | -0.172 |
| CC(C)C[C@H](NC(=O)[C@@H](COC(C)(C)C)NC(=O)[C@H](Cc1ccc(O)cc1)NC(=O)[C@H](CO)NC(=O)[C@H](Cc1c[nH]c2ccccc12)NC(=O)[C@H](Cc1cnc[nH]1)NC(=O)[C@@H]1CCC(=O)N1)C(=O)N[C@@H](CCCNC(=N)N)C(=O)N1CCC[C@H]1C(=O)NNC(N)=O [Goserelin acetate] | 0.146 |
| COc1cccc(-c2ccc(NC(=O)C3=C(C(=O)O)CCC3)c(F)c2)c1 [Vidofludimus] | 0.169 |
| Cn1c(=O)c2nc[nH]c2n(C)c1=O [Theophylline monohydrate] | 0.165 |
| N#Cc1ccc(-c2c(-c3ncn[nH]3)sc(N3CCOCC3)c2C#N)c(F)c1 | -0.206 |
| COc1cc2c(Oc3ccc4[nH]c(C)cc4c3F)ccnc2cc1OCC1(N)CC1 [Anlotinib Dihydrochloride] | -0.105 |
| CC(C)(C)c1[nH]cnc1/C=c1\[nH]c(=O)/c(=C/c2ccccc2)[nH]c1=O [Plinabulin (NPI-2358)] | 0.0766 |
| Cn1c(=O)cc(N2CCC[C@@H](N)C2)n(Cc2cc(F)ccc2C#N)c1=O [Trelagliptin succinate] | 0.144 |
| Cn1c(=O)cc(N2CCC[C@@H](N)C2)n(Cc2cc(F)ccc2C#N)c1=O [Trelagliptin] | -0.255 |
| NCCOc1cc(C(=O)Nc2cc(OCCN)c3ccccc3n2)nc(C(=O)Nc2cc(OCCN)c3ccccc3n2)c1 [Pyridostatin] | 0.0899 |

Look-ups from the results shown.
COc1cccc(-c2ccc(NC(=O)C3=C(C(=O)O)CCC3)c(F)c2)c1 [Vidofludimus] | thermal shift ΔTm of Mpro [°C]: 0.169
CCOC(=O)c1cnn(-c2ccccc2)c1NC(=O)c1cc2nc(-c3ccco3)cc(C(F)(F)Cl)n2n1 [Mycro-3] | thermal shift ΔTm of Mpro [°C]: 0.271
